From the supplement of paper PMC10849652 come the findings set out here.

Chains of the proteins cited; added tags and fusions are not shown. Lines headed by an entry give the natural chain unless they say otherwise; changes in a name come on top.
UniProt P34059: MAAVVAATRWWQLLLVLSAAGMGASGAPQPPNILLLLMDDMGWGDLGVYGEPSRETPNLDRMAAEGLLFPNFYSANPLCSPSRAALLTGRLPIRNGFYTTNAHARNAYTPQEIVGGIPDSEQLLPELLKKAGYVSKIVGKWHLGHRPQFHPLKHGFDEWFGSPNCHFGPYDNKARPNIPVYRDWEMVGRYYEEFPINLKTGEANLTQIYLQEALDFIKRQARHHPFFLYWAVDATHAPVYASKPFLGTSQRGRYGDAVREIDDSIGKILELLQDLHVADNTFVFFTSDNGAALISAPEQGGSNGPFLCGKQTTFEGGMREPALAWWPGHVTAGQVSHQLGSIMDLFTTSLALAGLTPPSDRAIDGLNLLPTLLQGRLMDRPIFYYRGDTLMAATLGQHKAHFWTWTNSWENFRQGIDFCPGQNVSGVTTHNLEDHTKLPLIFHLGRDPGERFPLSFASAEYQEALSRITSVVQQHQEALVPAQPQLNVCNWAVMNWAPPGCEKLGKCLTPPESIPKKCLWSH
UniProt O43716: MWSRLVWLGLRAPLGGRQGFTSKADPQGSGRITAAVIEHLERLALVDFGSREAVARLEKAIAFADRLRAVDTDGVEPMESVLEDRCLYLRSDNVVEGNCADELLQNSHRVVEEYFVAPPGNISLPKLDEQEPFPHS
UniProt O14772: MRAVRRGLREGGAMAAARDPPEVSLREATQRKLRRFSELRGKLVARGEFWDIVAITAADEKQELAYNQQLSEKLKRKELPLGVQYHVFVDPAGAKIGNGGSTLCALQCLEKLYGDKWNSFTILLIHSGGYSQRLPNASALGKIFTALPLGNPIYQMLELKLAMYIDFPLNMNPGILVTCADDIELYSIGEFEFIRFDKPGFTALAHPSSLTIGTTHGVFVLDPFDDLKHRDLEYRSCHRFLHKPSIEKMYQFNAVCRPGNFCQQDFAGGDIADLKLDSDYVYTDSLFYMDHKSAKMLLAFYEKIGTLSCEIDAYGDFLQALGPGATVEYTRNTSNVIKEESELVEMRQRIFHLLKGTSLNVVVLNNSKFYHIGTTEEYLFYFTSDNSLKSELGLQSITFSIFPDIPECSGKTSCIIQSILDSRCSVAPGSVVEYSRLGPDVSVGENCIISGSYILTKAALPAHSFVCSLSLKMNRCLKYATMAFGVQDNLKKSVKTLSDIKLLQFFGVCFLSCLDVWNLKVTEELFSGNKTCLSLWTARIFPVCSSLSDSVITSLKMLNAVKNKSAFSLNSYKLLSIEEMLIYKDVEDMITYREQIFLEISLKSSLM
UniProt O14893: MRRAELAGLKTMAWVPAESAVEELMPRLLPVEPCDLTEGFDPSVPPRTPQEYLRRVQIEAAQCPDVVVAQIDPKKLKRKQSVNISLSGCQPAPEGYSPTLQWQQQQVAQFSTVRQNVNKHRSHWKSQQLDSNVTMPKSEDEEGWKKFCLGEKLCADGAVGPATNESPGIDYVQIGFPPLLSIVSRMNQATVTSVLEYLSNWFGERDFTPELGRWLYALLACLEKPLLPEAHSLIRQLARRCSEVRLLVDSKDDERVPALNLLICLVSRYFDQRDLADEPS
UniProt Q8TEQ6: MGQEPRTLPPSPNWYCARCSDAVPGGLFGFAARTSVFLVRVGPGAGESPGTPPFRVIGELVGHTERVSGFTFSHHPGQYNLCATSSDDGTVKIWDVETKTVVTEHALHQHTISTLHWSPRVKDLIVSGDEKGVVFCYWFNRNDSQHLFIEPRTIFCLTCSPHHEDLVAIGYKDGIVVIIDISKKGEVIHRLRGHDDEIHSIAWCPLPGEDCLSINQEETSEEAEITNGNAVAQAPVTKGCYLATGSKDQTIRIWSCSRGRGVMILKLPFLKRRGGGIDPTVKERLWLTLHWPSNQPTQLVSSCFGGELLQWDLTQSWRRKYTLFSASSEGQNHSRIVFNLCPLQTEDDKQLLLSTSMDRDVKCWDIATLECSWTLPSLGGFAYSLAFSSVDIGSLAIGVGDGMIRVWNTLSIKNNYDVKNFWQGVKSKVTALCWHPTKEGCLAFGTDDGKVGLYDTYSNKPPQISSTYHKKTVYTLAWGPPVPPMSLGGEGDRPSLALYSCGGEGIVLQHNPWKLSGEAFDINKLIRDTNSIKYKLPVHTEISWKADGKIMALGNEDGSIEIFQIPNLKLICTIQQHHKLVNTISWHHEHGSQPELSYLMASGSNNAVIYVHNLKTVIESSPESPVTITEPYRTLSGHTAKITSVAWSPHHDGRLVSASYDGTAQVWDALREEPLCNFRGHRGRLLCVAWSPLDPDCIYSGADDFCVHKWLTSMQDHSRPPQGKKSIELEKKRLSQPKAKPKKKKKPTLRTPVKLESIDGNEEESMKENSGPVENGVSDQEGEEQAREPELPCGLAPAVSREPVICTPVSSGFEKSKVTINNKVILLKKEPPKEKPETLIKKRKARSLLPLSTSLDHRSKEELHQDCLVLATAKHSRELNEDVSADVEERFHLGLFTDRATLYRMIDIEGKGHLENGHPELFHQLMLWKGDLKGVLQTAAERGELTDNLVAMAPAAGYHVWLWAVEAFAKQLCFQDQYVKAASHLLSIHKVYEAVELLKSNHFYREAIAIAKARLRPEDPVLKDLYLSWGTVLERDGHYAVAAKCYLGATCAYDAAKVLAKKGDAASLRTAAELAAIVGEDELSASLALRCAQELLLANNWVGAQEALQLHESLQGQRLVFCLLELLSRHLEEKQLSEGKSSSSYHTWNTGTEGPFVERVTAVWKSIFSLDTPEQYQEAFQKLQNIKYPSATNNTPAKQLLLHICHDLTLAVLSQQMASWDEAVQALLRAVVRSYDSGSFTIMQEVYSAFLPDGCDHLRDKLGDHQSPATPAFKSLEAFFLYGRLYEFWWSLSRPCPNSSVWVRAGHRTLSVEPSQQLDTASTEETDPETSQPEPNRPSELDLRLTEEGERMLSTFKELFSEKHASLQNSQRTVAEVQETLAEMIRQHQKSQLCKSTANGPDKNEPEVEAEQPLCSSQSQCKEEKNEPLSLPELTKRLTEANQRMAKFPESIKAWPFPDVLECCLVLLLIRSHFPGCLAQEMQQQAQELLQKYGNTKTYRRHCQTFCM
UniProt Q86SF2: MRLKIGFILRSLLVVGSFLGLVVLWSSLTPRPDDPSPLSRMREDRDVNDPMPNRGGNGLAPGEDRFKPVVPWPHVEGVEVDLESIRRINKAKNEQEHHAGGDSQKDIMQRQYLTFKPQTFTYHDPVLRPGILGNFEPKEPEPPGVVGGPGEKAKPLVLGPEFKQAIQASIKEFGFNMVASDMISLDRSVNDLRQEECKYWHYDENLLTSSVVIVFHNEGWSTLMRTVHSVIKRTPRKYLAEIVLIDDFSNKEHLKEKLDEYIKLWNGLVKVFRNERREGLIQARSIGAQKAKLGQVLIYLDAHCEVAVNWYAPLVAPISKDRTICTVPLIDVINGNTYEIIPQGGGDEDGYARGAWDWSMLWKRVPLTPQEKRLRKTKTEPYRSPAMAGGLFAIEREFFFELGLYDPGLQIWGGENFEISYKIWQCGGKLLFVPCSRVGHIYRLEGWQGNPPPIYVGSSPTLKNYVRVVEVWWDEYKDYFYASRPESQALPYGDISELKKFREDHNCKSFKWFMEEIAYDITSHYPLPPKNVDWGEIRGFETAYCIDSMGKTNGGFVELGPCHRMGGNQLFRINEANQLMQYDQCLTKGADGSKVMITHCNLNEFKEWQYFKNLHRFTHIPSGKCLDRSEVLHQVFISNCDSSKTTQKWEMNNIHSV
UniProt Q13283, whole entry, looked up: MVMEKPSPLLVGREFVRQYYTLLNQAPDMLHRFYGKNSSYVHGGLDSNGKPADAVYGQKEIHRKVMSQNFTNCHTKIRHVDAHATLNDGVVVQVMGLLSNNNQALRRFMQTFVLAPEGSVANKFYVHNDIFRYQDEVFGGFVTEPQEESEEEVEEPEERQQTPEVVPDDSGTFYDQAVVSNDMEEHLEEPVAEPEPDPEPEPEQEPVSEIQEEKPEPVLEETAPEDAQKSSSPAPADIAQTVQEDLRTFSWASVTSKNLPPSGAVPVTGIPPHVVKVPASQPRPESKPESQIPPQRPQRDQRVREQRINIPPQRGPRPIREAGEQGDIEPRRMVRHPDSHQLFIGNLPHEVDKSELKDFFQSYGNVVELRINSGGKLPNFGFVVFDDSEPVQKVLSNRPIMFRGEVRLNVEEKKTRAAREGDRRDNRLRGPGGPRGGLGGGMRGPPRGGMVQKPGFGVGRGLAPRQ
UniProt Q16595: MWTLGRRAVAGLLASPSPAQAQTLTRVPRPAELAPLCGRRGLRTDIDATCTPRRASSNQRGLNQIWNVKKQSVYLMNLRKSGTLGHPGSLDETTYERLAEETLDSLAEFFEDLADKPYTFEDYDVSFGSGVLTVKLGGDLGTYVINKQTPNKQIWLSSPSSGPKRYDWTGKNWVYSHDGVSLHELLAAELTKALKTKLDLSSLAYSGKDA
UniProt Q96CN9: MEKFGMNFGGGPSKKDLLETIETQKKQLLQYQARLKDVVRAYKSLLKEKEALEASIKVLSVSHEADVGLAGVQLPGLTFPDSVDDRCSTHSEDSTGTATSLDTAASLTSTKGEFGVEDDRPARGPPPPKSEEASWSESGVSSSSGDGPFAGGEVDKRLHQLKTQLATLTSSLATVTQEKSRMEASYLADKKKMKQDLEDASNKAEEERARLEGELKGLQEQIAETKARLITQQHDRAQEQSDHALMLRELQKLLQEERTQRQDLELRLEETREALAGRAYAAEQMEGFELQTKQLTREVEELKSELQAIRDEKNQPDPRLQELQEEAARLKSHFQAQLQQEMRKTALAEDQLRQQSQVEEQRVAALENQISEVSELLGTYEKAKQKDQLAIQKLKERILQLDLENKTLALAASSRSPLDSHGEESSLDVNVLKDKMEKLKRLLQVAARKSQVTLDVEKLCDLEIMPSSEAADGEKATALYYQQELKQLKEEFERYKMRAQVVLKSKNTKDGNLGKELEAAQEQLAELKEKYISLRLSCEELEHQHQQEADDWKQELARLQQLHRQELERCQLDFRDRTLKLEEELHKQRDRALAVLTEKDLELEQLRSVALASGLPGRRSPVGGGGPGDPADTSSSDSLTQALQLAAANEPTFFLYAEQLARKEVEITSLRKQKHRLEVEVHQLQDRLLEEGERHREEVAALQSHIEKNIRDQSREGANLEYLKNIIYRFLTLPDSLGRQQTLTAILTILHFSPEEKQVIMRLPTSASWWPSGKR
UniProt O95166, whole entry, looked up: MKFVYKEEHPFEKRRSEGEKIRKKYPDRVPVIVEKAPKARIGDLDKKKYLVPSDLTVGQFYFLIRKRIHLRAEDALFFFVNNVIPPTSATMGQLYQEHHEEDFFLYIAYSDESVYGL
UniProt Q14376: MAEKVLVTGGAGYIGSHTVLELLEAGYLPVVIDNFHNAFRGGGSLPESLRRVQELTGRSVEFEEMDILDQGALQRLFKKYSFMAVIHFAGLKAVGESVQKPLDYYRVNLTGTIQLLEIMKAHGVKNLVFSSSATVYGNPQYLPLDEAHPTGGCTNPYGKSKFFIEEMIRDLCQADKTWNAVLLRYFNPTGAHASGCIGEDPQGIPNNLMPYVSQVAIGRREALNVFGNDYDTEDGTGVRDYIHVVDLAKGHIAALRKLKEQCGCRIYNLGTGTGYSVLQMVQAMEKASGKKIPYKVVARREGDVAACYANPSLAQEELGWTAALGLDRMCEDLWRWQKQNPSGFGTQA
UniProt Q06210: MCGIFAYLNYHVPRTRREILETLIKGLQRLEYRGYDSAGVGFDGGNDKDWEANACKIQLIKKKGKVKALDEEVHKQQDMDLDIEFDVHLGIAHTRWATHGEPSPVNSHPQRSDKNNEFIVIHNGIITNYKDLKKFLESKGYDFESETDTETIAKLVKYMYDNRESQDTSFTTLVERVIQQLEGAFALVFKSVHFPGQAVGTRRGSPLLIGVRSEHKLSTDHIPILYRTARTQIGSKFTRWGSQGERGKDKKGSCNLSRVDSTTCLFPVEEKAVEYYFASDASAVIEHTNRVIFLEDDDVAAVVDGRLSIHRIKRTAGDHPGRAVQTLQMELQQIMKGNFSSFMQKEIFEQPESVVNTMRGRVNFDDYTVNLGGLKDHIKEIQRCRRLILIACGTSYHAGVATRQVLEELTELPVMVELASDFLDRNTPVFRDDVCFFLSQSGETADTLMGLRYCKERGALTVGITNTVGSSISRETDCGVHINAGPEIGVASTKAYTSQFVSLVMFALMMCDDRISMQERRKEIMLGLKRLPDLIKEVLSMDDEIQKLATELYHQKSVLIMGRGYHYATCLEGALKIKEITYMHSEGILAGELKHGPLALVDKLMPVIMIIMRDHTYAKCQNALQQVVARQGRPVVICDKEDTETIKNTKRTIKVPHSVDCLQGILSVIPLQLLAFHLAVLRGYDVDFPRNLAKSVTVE

This is one part of the list.

Compound in the assay: NCC(=O)Nc1ccc(-n2nc(C(F)(F)F)cc2-c2ccc3c(ccc4ccccc43)c2)cc1
As to the kind of experiment: log2 fold change, soluble protein after heating vs DMSO (PISA); higher = thermal stabilisation; K562 lysate, 10 uM; active = over 0.2 and 3.5 SD of the protein, either way, in both replicates (recomputed). The essentials:
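Pellets of K562 cells were dounce-homogenised in PBS pH 7.4 with 1 mM MgCl2, and the crude extract was held at 1 mg/mL protein for a 30 min treatment with 10 μM compound. Aliquots were heated for 3 min over 48°C-58°C and pooled before NP-40 was added to 0.5% at 4°C. The supernatant from 21,000xg for 90 min was quantified by TMTpro 16plex LC-MS/MS with channel sums equalised. Values are reported from duplicates as log-two fold change in thermal stability relative to solvent controls.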
Take GALNS (UniProt P34059): the log2 fold change is inactive: -0.011.

As to GAPVD1 isoform 6 (UniProt Q14C86), the log2 fold change was inactive: -0.033.

As for GALT (UniProt P07902), the log2 fold change was inactive: -0.058.

Take GEMIN8 (UniProt Q9NWZ8): the log2 fold change is inactive: -0.001.

Consider FTL (UniProt P02792), for which the log2 fold change was inactive: -0.064.

Consider GAB1 isoform 2 (UniProt Q13480), for which the log2 fold change was inactive: -0.015.

Regarding GCAT isoform 2 (UniProt O75600), the log2 fold change was inactive: -0.053.

Take GFM2 (UniProt Q969S9): the log2 fold change was inactive: 0.055.

As for GALNT6 (UniProt Q8NCL4), the log2 fold change is inactive: -0.087.

In the case of GATC (UniProt O43716), the log2 fold change is inactive: -0.066.

Turning to FURIN (UniProt P09958), the log2 fold change was inactive: 0.024.

In the case of FPGT (UniProt O14772), the log2 fold change is inactive: -0.014.

In the case of GATAD2A isoform 3 (UniProt Q86YP4), the log2 fold change is inactive: 0.023.

For the target FXR2 (UniProt P51116), the log2 fold change was inactive: 0.033.

Take GFM1 (UniProt Q96RP9): the log2 fold change is inactive: 0.019.

For GEMIN2 (UniProt O14893), the log2 fold change was inactive: 0.003.

Take FOXP4 (UniProt Q8IVH2): the log2 fold change is inactive: 0.009.

With GEMIN5 (UniProt Q8TEQ6), the log2 fold change was inactive: 0.

Take GALK1 isoform 2 (UniProt P51570): the log2 fold change is inactive: -0.017.

As to FYB1 isoform 3 (UniProt O15117), the log2 fold change is inactive: 0.007.

Consider GDAP1 (UniProt Q8TB36), for which the log2 fold change is inactive: -0.092.

For GALNT7 (UniProt Q86SF2), the log2 fold change is inactive: 0.028.

Turning to GATAD2B (UniProt Q8WXI9), the log2 fold change is inactive: 0.037.

As for G3BP1 (UniProt Q13283), the log2 fold change is inactive: -0.002.

On to FXN (UniProt Q16595), for which the log2 fold change is inactive: -0.071.

On to GCC1 (UniProt Q96CN9), for which the log2 fold change is inactive: 0.023.

For GABARAP (UniProt O95166), the log2 fold change was inactive: -0.02.

Regarding FSCN1 (UniProt Q16658), the log2 fold change is inactive: -0.031.

On to GCLM (UniProt P48507), for which the log2 fold change was inactive: 0.007.

Consider GALE (UniProt Q14376), for which the log2 fold change was inactive: -0.034.

Regarding FRMD8 (UniProt Q9BZ67), the log2 fold change is inactive: -0.023.

In the case of GANAB isoform 2 (UniProt Q14697), the log2 fold change is inactive: -0.005.

Take FUS (UniProt P35637): the log2 fold change is inactive: -0.014.

Consider FOXRED1 (UniProt Q96CU9), for which the log2 fold change is inactive: -0.031.

In the case of GFPT1 (UniProt Q06210), the log2 fold change was inactive: 0.034.

GALK2 (UniProt Q01415): the log2 fold change is inactive: 0.011.

Take FRG1 (UniProt Q14331): the log2 fold change is inactive: -0.007.

As to GBE1 (UniProt Q04446), the log2 fold change was inactive: -0.013.

For GCC2 (UniProt Q8IWJ2), the log2 fold change was inactive: 0.011.
